These are yes or no findings as the source states them, for the method shown. For some of these results: Binding seen in cells or lysates may run through a third protein. Some results given as binding are weak or reduced against the parent protein; the word gives no strength. Tags and fused reporters may be left off the sequences shown.

Test [1] deals with T1, BD-bZIP63 with the two C-terminal sites mutated, S294/300A (protoplast two-hybrid) (Arabidopsis thaliana) (UniProt B9DGI8).
T1 sequence: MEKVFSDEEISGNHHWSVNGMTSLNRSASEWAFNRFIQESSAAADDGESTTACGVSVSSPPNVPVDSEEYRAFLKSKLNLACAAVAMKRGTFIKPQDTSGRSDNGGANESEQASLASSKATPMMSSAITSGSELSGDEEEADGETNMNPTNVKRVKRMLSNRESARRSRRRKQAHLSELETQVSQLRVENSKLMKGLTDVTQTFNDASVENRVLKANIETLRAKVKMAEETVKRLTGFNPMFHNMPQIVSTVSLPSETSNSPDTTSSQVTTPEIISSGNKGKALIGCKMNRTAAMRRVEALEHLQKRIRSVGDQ
In words: two-hybrid; protoplast two-hybrid (P2H) in Arabidopsis leaf protoplasts; GAL4-AD and GAL4-BD fusions, GAL-UAS4::GUS reporter normalised to 35S::NAN; without and with co-transformation of AKIN10; 16 hr.

Test [2] concerns the target T2, BD-bZIP63 S29A (protoplast two-hybrid) (Arabidopsis thaliana) (UniProt B9DGI8).
T2 sequence: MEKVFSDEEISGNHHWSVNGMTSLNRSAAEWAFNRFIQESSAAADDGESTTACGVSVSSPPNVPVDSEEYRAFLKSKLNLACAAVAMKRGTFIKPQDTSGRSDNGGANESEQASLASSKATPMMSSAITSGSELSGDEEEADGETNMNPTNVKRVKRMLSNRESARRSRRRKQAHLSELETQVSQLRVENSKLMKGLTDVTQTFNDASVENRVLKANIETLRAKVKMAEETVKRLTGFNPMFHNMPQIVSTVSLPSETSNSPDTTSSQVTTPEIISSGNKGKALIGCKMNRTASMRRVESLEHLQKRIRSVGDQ
The test is described as above.

Test [3] concerns the target T3, bZIP63 (protoplast two-hybrid fusion) (Arabidopsis thaliana) (UniProt B9DGI8).
T3 sequence: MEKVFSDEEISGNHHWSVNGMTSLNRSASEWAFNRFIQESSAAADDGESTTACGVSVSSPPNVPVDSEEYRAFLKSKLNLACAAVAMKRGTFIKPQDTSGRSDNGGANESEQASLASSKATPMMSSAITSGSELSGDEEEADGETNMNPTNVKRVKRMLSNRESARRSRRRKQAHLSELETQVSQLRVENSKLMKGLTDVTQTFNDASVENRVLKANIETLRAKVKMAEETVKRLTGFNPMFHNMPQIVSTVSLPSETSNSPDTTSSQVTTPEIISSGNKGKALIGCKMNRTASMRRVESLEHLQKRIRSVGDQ
The description is as above.

Test [4] addresses T4, BD-bZIP63 S29/294/300A (protoplast two-hybrid) (Arabidopsis thaliana) (UniProt B9DGI8).
T4 sequence: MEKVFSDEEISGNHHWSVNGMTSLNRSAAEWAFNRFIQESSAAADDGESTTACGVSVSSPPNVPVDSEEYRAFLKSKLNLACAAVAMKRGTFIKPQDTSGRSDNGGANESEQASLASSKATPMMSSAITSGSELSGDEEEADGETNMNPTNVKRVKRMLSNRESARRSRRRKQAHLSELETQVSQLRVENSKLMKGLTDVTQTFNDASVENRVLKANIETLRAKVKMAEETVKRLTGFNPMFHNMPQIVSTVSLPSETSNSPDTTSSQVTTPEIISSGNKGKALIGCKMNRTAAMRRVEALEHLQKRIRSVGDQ
Described as above.

Test [5] addresses bZIP63 (yeast two-hybrid fusion) (Arabidopsis thaliana) (UniProt B9DGI8). In words: two-hybrid; yeast strain L40; LexA-BD fusions (pBTM117) as baits, GAL4-AD-bZIP63 (pACTIIJ) as prey; lacZ reporter read with ONPG in cell extracts; auto-activation measured with empty pACTIIJ.
In test [6] the target is T5, AKIN10 (LexA-BD yeast two-hybrid fusion) (Arabidopsis thaliana) (UniProt Q38997).
T5 sequence: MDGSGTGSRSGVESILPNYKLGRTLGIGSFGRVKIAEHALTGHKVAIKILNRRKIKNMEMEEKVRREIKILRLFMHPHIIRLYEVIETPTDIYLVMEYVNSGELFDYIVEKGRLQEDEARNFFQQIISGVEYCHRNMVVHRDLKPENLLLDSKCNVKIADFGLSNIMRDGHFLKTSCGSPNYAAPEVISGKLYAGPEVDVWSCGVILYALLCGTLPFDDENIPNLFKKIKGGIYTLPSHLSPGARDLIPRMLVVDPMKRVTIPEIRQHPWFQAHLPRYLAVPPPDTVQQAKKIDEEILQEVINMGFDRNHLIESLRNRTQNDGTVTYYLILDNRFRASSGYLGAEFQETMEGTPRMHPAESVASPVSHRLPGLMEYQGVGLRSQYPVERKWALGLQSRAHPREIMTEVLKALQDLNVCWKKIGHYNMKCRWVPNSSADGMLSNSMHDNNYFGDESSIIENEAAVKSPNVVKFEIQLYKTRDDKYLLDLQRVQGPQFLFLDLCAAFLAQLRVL
The test is described as above.

Test [7] concerns the target T6, SNF4 (LexA-BD yeast two-hybrid fusion) (Arabidopsis thaliana) (UniProt Q944A6).
T6 sequence: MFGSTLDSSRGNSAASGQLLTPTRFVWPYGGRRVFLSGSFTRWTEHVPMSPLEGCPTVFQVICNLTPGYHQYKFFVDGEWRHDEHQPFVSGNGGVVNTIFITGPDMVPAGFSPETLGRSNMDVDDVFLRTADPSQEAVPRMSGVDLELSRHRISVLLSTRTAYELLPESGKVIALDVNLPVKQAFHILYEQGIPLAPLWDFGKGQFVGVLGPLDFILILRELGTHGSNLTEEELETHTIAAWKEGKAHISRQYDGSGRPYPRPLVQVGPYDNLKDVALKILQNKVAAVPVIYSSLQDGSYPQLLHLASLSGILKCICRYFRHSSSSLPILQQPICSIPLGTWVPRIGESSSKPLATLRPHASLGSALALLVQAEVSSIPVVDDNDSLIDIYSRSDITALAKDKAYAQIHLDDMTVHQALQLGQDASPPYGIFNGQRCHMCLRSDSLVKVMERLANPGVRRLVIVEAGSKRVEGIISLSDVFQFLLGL
The description is as above.

Test [8] deals with T7, AKIN11 (LexA-BD yeast two-hybrid fusion) (Arabidopsis thaliana) (UniProt P92958).
T7 sequence: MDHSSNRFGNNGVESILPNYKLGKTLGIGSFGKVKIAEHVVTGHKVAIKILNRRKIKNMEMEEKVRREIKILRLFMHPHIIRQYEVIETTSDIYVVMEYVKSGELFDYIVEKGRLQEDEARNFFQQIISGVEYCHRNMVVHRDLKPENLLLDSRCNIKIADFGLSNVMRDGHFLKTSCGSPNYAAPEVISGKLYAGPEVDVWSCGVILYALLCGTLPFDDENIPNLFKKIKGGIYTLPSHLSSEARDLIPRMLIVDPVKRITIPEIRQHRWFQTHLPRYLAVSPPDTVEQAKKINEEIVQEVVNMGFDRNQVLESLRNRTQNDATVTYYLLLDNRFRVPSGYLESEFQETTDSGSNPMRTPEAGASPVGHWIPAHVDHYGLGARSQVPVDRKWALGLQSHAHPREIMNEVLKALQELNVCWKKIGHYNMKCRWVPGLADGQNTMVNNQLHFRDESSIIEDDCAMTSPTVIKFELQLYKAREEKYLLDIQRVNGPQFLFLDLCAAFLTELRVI
The test is described as above.

Test [9] has as its target T8, bZIP11 fused to the N-terminal moiety of CFP (multi-color BiFC) (Arabidopsis thaliana) (UniProt O65683).
T8 sequence: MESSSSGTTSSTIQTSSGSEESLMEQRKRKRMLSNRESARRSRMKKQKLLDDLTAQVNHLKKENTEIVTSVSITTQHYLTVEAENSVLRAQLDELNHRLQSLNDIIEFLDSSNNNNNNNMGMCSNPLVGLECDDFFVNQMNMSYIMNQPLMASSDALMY
In words: split reporter; multi-color BiFC in transiently transformed Nicotiana tabacum leaves; bZIP11-CFP-N, bZIP1-VENUS-N and CFP-C-bZIP63 (wt or S29/294/300A) from one plasmid, AKIN10-mCherry co-transformed; VENUS/CFP ratio in nuclei with mCherry signal, 48 hr after infiltration.

Test [10] concerns the target T9, bZIP1 fused to the N-terminal moiety of VENUS (multi-color BiFC) (Arabidopsis thaliana) (UniProt Q9FGX2).
T9 sequence: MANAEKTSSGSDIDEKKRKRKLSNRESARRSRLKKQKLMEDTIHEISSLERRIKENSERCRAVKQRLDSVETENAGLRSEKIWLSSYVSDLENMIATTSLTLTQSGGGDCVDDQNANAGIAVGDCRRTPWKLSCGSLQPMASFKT
The description is as above.

B1: bZIP11 (protoplast two-hybrid fusion) (protein, UniProt O65683 1-159)
chain: MESSSSGTTSSTIQTSSGSEESLMEQRKRKRMLSNRESARRSRMKKQKLLDDLTAQVNHLKKENTEIVTSVSITTQHYLTVEAENSVLRAQLDELNHRLQSLNDIIEFLDSSNNNNNNNMGMCSNPLVGLECDDFFVNQMNMSYIMNQPLMASSDALMY
With B1, the binding result in test [1], in test [2], in test [3] and in test [4] was “binds” each time.

B2: bZIP63 (yeast two-hybrid fusion) (protein, UniProt B9DGI8 1-314)
chain: MEKVFSDEEISGNHHWSVNGMTSLNRSASEWAFNRFIQESSAAADDGESTTACGVSVSSPPNVPVDSEEYRAFLKSKLNLACAAVAMKRGTFIKPQDTSGRSDNGGANESEQASLASSKATPMMSSAITSGSELSGDEEEADGETNMNPTNVKRVKRMLSNRESARRSRRRKQAHLSELETQVSQLRVENSKLMKGLTDVTQTFNDASVENRVLKANIETLRAKVKMAEETVKRLTGFNPMFHNMPQIVSTVSLPSETSNSPDTTSSQVTTPEIISSGNKGKALIGCKMNRTASMRRVESLEHLQKRIRSVGDQ
For B2, the binding entry in test [5] is given as “binds”; in [6], “binds”; in test [7], “binds”; in test [8] it was “binds weakly”.

B3: bZIP63 S29/294/300A fused to the C-terminal moiety of CFP (multi-color BiFC) (protein, UniProt B9DGI8 1-314)
chain: MEKVFSDEEISGNHHWSVNGMTSLNRSAAEWAFNRFIQESSAAADDGESTTACGVSVSSPPNVPVDSEEYRAFLKSKLNLACAAVAMKRGTFIKPQDTSGRSDNGGANESEQASLASSKATPMMSSAITSGSELSGDEEEADGETNMNPTNVKRVKRMLSNRESARRSRRRKQAHLSELETQVSQLRVENSKLMKGLTDVTQTFNDASVENRVLKANIETLRAKVKMAEETVKRLTGFNPMFHNMPQIVSTVSLPSETSNSPDTTSSQVTTPEIISSGNKGKALIGCKMNRTAAMRRVEALEHLQKRIRSVGDQ
Regarding B3, the binding entry in [9] and in [10] was “binds” each time.

Source of the values: publication PMC4558565.
